The values below come from the supplement of paper PMC8616043.

Structures can show the parent of a compound that is named as a salt. This is one part of the list. Single values are uncertain here, since repeats match poorly.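 Human U-2 OS cells stably expressing a GFP sensor with a nuclear import signal and classical export signal were transfected to produce PR50, a 50-repeat proline–arginine dipeptide from ALS/FTD gene C9ORF72. Nuclear-minus-cytoplasm GFP was scaled from DMSO (low) to PR-only (high), scored against plate test wells; strongly negative scores marked PR-reversing hits.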

This assay deals with U-2 OS NCT-C biosensor cells expressing PR50. Put plainly: Z-score of normalised NCT-C biosensor translocation index in PR50-expressing cells; higher = more nuclear biosensor (more disrupted nuclear export). As to conditions: 3 µM; 24 h.
For the molecule `CC[C@@H](CO)NCCN[C@@H](CC)CO` [Ethambutol Dihydrochloride], the Z-score was inactive: 0.393.

`CC1=C(/C=C/C(C)=C\C=C\C(C)=C\C(=O)O)C(C)(C)CCC1` [Alitretinoin]: the Z-score is inactive: 0.422.

As to `CC1=C(/C=C/C(C)=C\C=C\C(C)=C\C(=O)O)C(C)(C)CCC1` [9-cis-Retinoic acid], the Z-score is inactive: -0.62.

With `C[C@@H]1O[C@@H](OC[C@H]2O[C@@H](Oc3cc(O)c4c(=O)cc(-c5ccc(O)cc5)oc4c3)[C@H](O)[C@@H](O)[C@@H]2O)[C@H](O)[C@H](O)[C@H]1O` [Isorhoifolin], the Z-score was inactive: -0.0792.

With `O=C(/C=C/c1ccc(O)c(O)c1)O[C@@H]1C[C@](O)(C(=O)O)C[C@@H](O)[C@H]1O` [Chlorogenic acid], the Z-score is inactive: 0.387.

Turning to `C#C[C@]1(O)CC[C@H]2[C@@H]3CCC4=CC(=O)CC[C@@H]4[C@H]3CC[C@@]21CC` [Levonorgestrel], the Z-score is inactive: 0.0887.

Turning to `C#CCn1c(=O)c2c(ncn2C)n(C)c1=O` [3,7-Dimethyl-1- propargylxanthine], the Z-score is inactive: -0.224.

On to `Cn1ccc2cc3c(cc21)CCN3C(=O)Nc1cccnc1`, for which the Z-score was inactive: -0.993.

For the molecule `O=C(O)CP(=O)(O)O` [Phosphonoacetic acid], the Z-score was inactive: -1.05.

As for `CCC(=O)Nc1cccc(Oc2nc(Nc3ccc(N4CCN(C)CC4)cc3OC)ncc2Cl)c1`, the Z-score is inactive: -0.172.

For `CO/N=C(\C(=O)N[C@@H]1C(=O)N2C(C(=O)OC(C)OC(C)=O)=C(COC(N)=O)CS[C@H]12)c1ccco1` (some centres undefined) [Cefuroxime Axetil], the Z-score is inactive: 0.615.

For the molecule `CCN(CC)CCCCCCCCOC(=O)c1cc(OC)c(OC)c(OC)c1` [TMB-8  hydrochloride], the Z-score is inactive: 0.0754.

Take `N#CC(C#N)=C(N)/C(C#N)=C/c1cc(O)c(O)c(O)c1` [Tyrphostin 51]: the Z-score was inactive: -0.216.

Consider `COc1ccccc1OCC(O)COC(N)=O` (centres undefined) [Methocarbamol], for which the Z-score was inactive: 0.0504.

Take `Nc1ccn([C@@H]2CS[C@H](CO)O2)c(=O)n1` [Lamivudine]: the Z-score was inactive: 0.207.

For the molecule `Cc1cc(N)c2ccccc2[n+]1CCCCCCCCCC[n+]1c(C)cc(N)c2ccccc21` [Dequalinium chloride hydrate], the Z-score was inactive: 0.222.

In the case of `C[C@@H]1O[C@@H](O[C@@H]2[C@@H](O)[C@H](O)[C@@H](CO)O[C@H]2c2c(O)cc(O)c3c(=O)cc(-c4ccc(O)cc4)oc23)[C@H](O)[C@H](O)[C@H]1O` [Vitexin-2"-O-rhamnoside], the Z-score is inactive: 1.31.

Consider `NNC(=O)CSc1nc2scc(-c3ccccc3)c2c(=O)n1-c1ccccc1`, for which the Z-score is inactive: -0.0254.

With `Oc1cc2c(cc1O)C(c1ccccc1)CNCC2` (racemic), the Z-score is inactive: -0.262.

Regarding `CC(C)(O)c1ccccc1CC[C@@H](SCC1(CC(=O)O)CC1)c1cccc(/C=C/c2ccc3ccc(Cl)cc3n2)c1` [Montelukast·Na], the Z-score is inactive: -0.407.

As for `O=C1NC(=O)C(c2ccccc2)(c2ccccc2)N1` [Phenytoin], the Z-score is inactive: 1.8.

As to `O=C1NC(=O)C(c2ccccc2)(c2ccccc2)N1` [5,5-  Diphenylhydantoin], the Z-score was inactive: 0.452.

In the case of `CN1Cc2c(N)cccc2C(c2ccccc2)C1` (centres undefined) [Nomifensine maleate], the Z-score is inactive: 0.0691.

As to `COc1c(N2CCNC(C)C2)c(F)cc2c(=O)c(C(=O)O)cn(C3CC3)c12` (centres undefined) [Gatifloxacin], the Z-score was inactive: 0.088.

As to `O=C(c1ccccc1)c1ccc2n1CCC2C(=O)O` (centres undefined) [Ketorolac tris salt], the Z-score is inactive: 0.847.

As for `O=C(c1ccccc1)c1ccc2n1CCC2C(=O)O` (centres undefined) [Ketorolac Tromethamine], the Z-score was inactive: 0.962.

With `CCN(CC)CCOc1ccc(/C(=C(/Cl)c2ccccc2)c2ccccc2)cc1` [Enclomiphene hydrochloride], the Z-score was inactive: 0.254.

Turning to `CN(C)CC(c1ccc(O)cc1)C1(O)CCCCC1` (centres undefined) [Desvenlafaxine Succinate Hydrate], the Z-score was inactive: -0.252.

On to `C/C1=C\CC(C)(C)/C=C/C(=O)/C(C)=C/CC1` [Zerumbone], for which the Z-score is inactive: -0.107.

Consider `COC(=O)C1=C(C)NC(C)=C(C(=O)OC(C)C)C1c1cccc2nonc12` (centres undefined) [Isradipine], for which the Z-score was inactive: -0.841.

With `CC(C)=CCc1cc2c(cc1O)oc(=O)c1c3ccc(O)cc3oc21` [Psoralidin], the Z-score was inactive: 0.206.

Take `O=C(O)/C=C/c1cnc[nH]1` [4-Imidazoleacrylic acid]: the Z-score is inactive: -0.107.

For the molecule `O=C(/C=C/N1C[C@H]2C[C@@H]1CN2c1ccccn1)c1ccccc1O`, the Z-score is active: -2.23.

Consider `CC1COc2c(N3CCN(C)CC3)c(F)cc3c(=O)c(C(=O)O)cn1c23` (centres undefined) [Ofloxacin], for which the Z-score is inactive: -0.042.

As for `O=C(c1ccoc1)N1CCN(c2cc(-c3ccco3)nc3cc(-c4ccccc4)nn23)CC1`, the Z-score is inactive: 2.59.

Take `CCOC(=O)Nc1ccc(NCc2ccc(F)cc2)nc1N` [Flupirtine maleate]: the Z-score was inactive: -1.04.

As to `C#C[C@]1(O)CC[C@H]2[C@@H]3CCC4=CCCC[C@@H]4[C@H]3C(=C)C[C@@]21CC` [Desogestrel], the Z-score is inactive: 0.00949.

As to `COc1c2c(nc3ccccc13)OC(C(C)(O)CO)C2` (centres undefined) [Dubinidine], the Z-score is inactive: -0.0123.

Regarding `CC(=O)Oc1cc2c(s1)CCN(C(C(=O)C1CC1)c1ccccc1F)C2` (centres undefined) [Prasugrel], the Z-score is inactive: -0.744.

For the molecule `Cn1cnc([N+](=O)[O-])c1Sc1ncnc2[nH]cnc12` [Azathioprine], the Z-score is inactive: 0.885.

For `CC(C)C(=O)Nc1ccc([N+](=O)[O-])c(C(F)(F)F)c1` [Flutamide], the Z-score is inactive: -0.0649.

Take `OCCN1C[C@H](O)[C@@H](O)[C@H](O)[C@H]1CO` [Miglitol]: the Z-score is inactive: -0.499.

For the molecule `CC(=O)OCC[N+](C)(C)C` [Acetylcholine Chloride], the Z-score is inactive: 0.831.

For the molecule `CC1(C)CCC2=C(O1)c1ccccc1C(=O)C2=O` [β-Lapachone], the Z-score is inactive: -0.789.

In the case of `O=C(O)CSCC(=O)NC1CCSC1=O` (centres undefined) [Erdosteine], the Z-score was inactive: -0.619.

In the case of `COc1cc(/C=C/C(=O)CC(=O)/C=C/c2ccc(O)c(OC)c2)ccc1O` [Curcumin], the Z-score is inactive: -1.21.

Take `Cc1ccc(S(=O)(=O)Nc2ccccc2N2CCCCC2)s1`: the Z-score was inactive: 3.26.

On to `NCC[C@H](O)C(=O)N[C@@H]1C[C@H](N)[C@@H](O[C@H]2O[C@H](CN)[C@@H](O)[C@H](O)[C@H]2O)[C@H](O)[C@H]1O[C@H]1O[C@H](CO)[C@@H](O)[C@H](N)[C@H]1O` [Amikacin Disulfate], for which the Z-score was inactive: 0.308.

Consider `NC(C(=O)O)c1cc(O)cc(O)c1` [(S)-3,5-  Dihydroxyphenyl glycine], for which the Z-score is inactive: 0.21.

Consider `O=C1c2cccc3c2[C@H](CCC3)CN1[C@@H]1CN2CCC1CC2` [Palonosetron hydrochloride], for which the Z-score is inactive: -0.405.

As to `O=C1c2cccc3c2[C@H](CCC3)CN1[C@@H]1CN2CCC1CC2` [Palonosetron·HCl], the Z-score is inactive: -0.469.

Regarding `NC(CO)C(=O)NNCc1ccc(O)c(O)c1O` (centres undefined) [Benserazide hydrochloride], the Z-score is inactive: 4.33.

As to `C[C@H]1COc2c(N3CCN(C)CC3)c(F)cc3c(=O)c(C(=O)O)cn1c23` [Levofloxacin·HCl], the Z-score was inactive: 0.264.

As to `CN(C/C=C/C#CC(C)(C)C)Cc1cccc2ccccc12` [Terbinafine·HCl], the Z-score is inactive: 0.625.

Regarding `O=c1[nH]cnc2c1ncn2[C@H]1CC[C@@H](CO)O1` [Didanosine], the Z-score is inactive: -0.276.

For `Fc1ccc([C@@H]2CCNC[C@H]2COc2ccc3c(c2)OCO3)cc1` [Paroxetine·HCl], the Z-score is inactive: -0.0994.

Regarding `Fc1ccc([C@@H]2CCNC[C@H]2COc2ccc3c(c2)OCO3)cc1` [Paroxetine HCl hemihydrate], the Z-score is inactive: 0.936.

`Nc1nc(O)c2ncn(CCC(CO)CO)c2n1` [Penciclovir]: the Z-score was inactive: -0.35.

As to `Cc1cc(O)c2c(c1)C(=O)c1cc(O)cc(O)c1C2=O` [Emodin], the Z-score is inactive: -0.678.

For the molecule `CCOC(=O)[C@H](CCc1ccccc1)N[C@@H](C)C(=O)N1Cc2cc(OC)c(OC)cc2C[C@H]1C(=O)O` [Moexipril·HCl], the Z-score was inactive: -0.823.

Regarding `Nc1ccc2c3c(cccc13)C(=O)NC2=O` [4-Amino-1,8- naphthalimide], the Z-score is inactive: 0.0571.

Regarding `CC(N)C(=O)OC(C)(C)Cc1ccc(Cl)cc1` (centres undefined) [Alaproclate hydrochloride], the Z-score is inactive: 1.01.

As to `C[C@H]1[C@H](OC(=O)CCC(=O)O)O[C@@H]2O[C@@]3(C)CC[C@H]4[C@H](C)CC[C@@H]1[C@@]24OO3` [Artesunate], the Z-score was inactive: -0.667.

On to `O=C(O)CCNC(=O)c1ccc(/N=N/c2ccc(O)c(C(=O)O)c2)cc1` [Balsalazide], for which the Z-score was inactive: -0.29.

As for `C[n+]1ccccc1/C=N/O` [Pralidoxime Chloride], the Z-score is inactive: -0.275.

Turning to `CCC(C)n1ncn(-c2ccc(N3CCN(c4ccc(OCC5COC(Cn6cncn6)(c6ccc(Cl)cc6Cl)O5)cc4)CC3)cc2)c1=O` (centres undefined) [Itraconazole], the Z-score is inactive: -0.0153.

`Cc1cccc(Nc2ccccc2C(=O)O)c1C` [Mefenamic Acid]: the Z-score is inactive: 0.159.

Turning to `O=c1cc(-c2ccc(O)c(O[C@@H]3O[C@H](CO)[C@@H](O)[C@H](O)[C@H]3O)c2)oc2cc(O[C@@H]3O[C@H](CO)[C@@H](O)[C@H](O)[C@H]3O)cc(O)c12` [Luteolin-3',7-diglucoside], the Z-score was inactive: 0.0284.

With `Cc1ccsc1C(=CCCN1CCC[C@@H](C(=O)O)C1)c1sccc1C` [Tiagabine·HCl], the Z-score is inactive: -0.699.
